Results are given in words; binding and its absence hold for the method and conditions named. In cells and extracts the contact can be indirect. Some entries that bind do so weakly or less than the wild type.
How the values were obtained:
[1] = target: GST-HOXB3 (full-length) (human) (UniProt P14651); assay: pull-down; beads with purified GST-HOXB3 (full-length or truncated) incubated 3 h with 35S-methionine-labeled in vitro-translated AXIN1 in binding buffer (HEPES pH 7.9, 5 mM EDTA, 0.4 M KCl, 0.4% NP40, 1 mM DTT, 10% glycerol); 4 washes; autoradiography; only the target purified
[2] = target: HOXB3 (human (endogenous in LNCaP-AI)) (UniProt P14651); assay: co-IP; endogenous proteins of LNCaP-AI lysate (5 mM HEPES pH 7.4, 150 mM NaCl, 1% Triton X-100, 1 mM EDTA); 500 μg protein with 2–3 μg antibody to HOXB3, AXIN1 or CKIα overnight at 4 °C, protein A beads, Western blot; cells with or without WNT3A (time course for CKIα IP) or after siRNA to HOXB3, IKKβ, CKIα or GSK3 (complex weakened after CKIα deletion)
[3] = target: casein kinase Iα (CKIα) (human (endogenous in LNCaP-AI)) (UniProt P48729); assay: as above
[4] = target: AXIN1 (human (endogenous in LNCaP-AI)) (UniProt O15169); assay: as above

Amino acid sequences for entries named in this document (tags omitted).
UniProt P14651: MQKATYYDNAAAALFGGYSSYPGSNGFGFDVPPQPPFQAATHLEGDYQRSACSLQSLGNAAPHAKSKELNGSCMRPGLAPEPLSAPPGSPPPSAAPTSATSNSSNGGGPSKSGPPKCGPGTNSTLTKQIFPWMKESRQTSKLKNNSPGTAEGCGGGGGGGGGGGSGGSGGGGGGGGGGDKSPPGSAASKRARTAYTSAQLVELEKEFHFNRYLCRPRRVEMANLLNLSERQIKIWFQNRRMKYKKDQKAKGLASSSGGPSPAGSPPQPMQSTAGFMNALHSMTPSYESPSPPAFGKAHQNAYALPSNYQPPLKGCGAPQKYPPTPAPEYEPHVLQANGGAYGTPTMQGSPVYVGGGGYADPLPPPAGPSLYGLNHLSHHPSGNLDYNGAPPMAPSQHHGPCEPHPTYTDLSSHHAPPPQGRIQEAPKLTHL
UniProt P48729: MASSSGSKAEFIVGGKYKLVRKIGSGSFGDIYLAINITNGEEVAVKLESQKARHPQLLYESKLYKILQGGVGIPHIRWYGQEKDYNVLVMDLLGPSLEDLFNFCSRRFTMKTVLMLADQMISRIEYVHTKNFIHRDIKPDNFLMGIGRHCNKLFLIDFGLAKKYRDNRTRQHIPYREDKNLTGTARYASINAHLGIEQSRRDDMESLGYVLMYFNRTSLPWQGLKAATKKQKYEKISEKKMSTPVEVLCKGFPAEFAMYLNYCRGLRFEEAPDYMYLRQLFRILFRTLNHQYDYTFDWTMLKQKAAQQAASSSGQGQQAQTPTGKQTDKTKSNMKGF
UniProt O15169: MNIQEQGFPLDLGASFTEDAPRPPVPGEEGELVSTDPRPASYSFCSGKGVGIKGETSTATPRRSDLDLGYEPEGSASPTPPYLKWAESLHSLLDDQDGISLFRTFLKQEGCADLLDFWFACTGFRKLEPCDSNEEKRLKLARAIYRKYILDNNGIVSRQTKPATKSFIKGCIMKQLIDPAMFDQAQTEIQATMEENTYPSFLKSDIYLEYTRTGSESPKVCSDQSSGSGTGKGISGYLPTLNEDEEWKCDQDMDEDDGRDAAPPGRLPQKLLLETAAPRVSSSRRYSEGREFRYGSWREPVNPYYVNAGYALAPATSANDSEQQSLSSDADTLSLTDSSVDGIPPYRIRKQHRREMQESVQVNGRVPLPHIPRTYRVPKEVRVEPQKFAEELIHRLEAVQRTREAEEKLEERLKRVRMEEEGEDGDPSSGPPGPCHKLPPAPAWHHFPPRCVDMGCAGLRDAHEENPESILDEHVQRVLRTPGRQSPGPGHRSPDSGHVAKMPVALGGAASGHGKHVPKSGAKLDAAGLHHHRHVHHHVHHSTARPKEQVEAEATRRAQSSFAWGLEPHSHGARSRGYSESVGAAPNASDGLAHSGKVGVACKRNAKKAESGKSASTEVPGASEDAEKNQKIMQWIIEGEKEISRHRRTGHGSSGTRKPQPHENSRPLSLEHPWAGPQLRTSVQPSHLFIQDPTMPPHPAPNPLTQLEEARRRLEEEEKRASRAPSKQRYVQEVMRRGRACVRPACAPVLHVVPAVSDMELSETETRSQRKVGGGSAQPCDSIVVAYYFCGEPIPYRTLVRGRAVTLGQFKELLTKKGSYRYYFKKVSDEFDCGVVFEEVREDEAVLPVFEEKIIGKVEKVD
UniProt P35222: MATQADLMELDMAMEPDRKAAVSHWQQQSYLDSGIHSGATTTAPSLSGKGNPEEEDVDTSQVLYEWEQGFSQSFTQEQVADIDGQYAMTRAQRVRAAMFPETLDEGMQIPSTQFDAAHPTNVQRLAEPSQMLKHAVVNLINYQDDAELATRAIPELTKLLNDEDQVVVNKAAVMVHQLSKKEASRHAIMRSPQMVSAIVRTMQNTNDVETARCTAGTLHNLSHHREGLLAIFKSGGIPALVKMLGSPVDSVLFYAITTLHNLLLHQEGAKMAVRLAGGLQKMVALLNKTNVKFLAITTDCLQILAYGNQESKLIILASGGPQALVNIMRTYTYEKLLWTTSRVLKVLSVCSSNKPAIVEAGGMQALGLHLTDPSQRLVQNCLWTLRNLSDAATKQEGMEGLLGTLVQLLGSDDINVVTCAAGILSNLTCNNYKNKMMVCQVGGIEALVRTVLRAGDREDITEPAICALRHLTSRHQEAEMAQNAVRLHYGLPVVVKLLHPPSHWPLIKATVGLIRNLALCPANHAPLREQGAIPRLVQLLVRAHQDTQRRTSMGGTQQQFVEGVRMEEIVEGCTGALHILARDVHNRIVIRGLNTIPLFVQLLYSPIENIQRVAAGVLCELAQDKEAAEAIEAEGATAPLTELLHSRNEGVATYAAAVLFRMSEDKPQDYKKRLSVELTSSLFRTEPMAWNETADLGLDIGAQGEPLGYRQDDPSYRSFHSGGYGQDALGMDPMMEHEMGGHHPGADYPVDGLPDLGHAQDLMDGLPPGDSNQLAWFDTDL

Substance: 35S-methionine-labeled in vitro-translated AXIN1 (from UniProt O15169 1-862)
- binding [1]: binds

Substance: AXIN1 (from UniProt O15169 1-862)
- binding [2]: binds
- binding [3]: binds

Substance: HOXB3 (from UniProt P14651 1-431)
- binding [4]: binds
- binding [3]: binds

Substance: β-catenin (from UniProt P35222 1-781)
- binding [4]: binds

Reference: PMC10042887
